The values that follow come from PubChem BioAssay AID2685 (National Center for Advancing Translational Sciences (NCATS), 2010).

The nature of the assay: qHTS Assay for Lipid Storage Modulators in Drosophila S3 Cells.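 As to cell number change: cells counted by Cell Tracker Red CMTPX staining in the red channel.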 As to conditions: BODIPY lipid droplet fluorescence, 18-24 h; for cell number change: measured here: cell count max response, cells fed with added oleic acid. In a few lines:
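Drosophila S3 cells loaded with oleic acid (400 uM, as added) and compounds at several concentrations; lipid droplets imaged by 488-nm laser-scanning cytometry, 500–530 nm intensity and object ratio to cell channel. Percent activity normalized to 20 uM Triacsin C.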
(In qHTS, concentration-response curves come from the screen itself.)

Setting [1] is: measured here: cell number channel AC50, cells fed with added oleic acid.
Where [2] appears, read: measured here: lipid fluorescence (Fed channel) AC50, cells fed with added oleic acid.

The structures appear in SMILES notation. The list shows a part of the results. Shown are side measurements of this screen, not its main read-out; they come without a call. Compounds called inactive in the main read-out are mostly missing here. Words in brackets tell the shape of the fitted curve; partial curves, single points and poor fits give uncertain potencies.

For the compound `O=C(CC12CC3CC(CC(C3)C1)C2)NC(Cc1ccccc1)C(=O)O` (centres undefined), the cell number change was 18.8%. In addition, under setting [1], the AC50 was 51.7 nM [falling, full curve, poor fit].
`CCCC(=O)Nc1ccc2c(c1)nc(CCN1CCN(c3ccccn3)CC1)n2C`: the cell number change came out at 14.9%.
Regarding `CCOC(=O)[C@H]1[C@H]2COc3cc(OC)ccc3[C@@H]2N2C(=O)c3cc(OC)c(OC)cc3NC(=O)[C@@]12C`, the cell number change was found to be 26.7%. Besides, under setting [1], the half-maximal activity concentration (AC50) was 820 nM [rising, full curve, poor fit]. Further, the AC50 under setting [2] is 16400 nM [rising, partial curve, poor fit].
Regarding `C[C@]12CC(O)C3C(CCC4=CC(=O)CC[C@@]43C)C1CCC2c1csc(-c2ccccc2)n1` (some centres undefined), the cell number change amounted to 18.6%.
As for `COc1ccc2c(c1)CC/C(=C/c1ccccn1)C2=O`, the cell number change is -21.3%. Under setting [2], the AC50 is 103 nM [falling, full curve, poor fit].
On to `COc1ccc2oc(=O)c(C(=O)C[n+]3cccc(C)c3)cc2c1`, for which the cell number change is -52.9%.
On to `CC(C)C(NS(=O)(=O)c1cccc2nsnc12)C(=O)N1CCn2c1nc1ccccc12` (centres undefined), for which the cell number change was -46%. Moreover, the AC50 under setting [1] is 29100 nM [falling, single point]. Moreover, the half-maximal activity concentration (AC50) under setting [2] was 29100 nM [falling, single point].
In the case of `COC(=O)C1CCN(C(=O)COC(=O)Cc2c[nH]c3ccccc23)CC1`, the cell number change was -38.3%. Besides, the AC50 under setting [1] was 1840 nM [falling, partial curve, poor fit]. The AC50 under setting [2] is 146 nM [falling, full curve, poor fit].
Consider `CCOC(=O)c1[nH]c2ccc(F)cc2c1NC(=O)CN1CCc2cc(OC)c(OC)cc2C1`, for which the cell number change was -1.81%. For the same compound, the AC50 under setting [2] was 920 nM [rising, partial curve].
Consider `CC(C)C(NC(=O)c1ccc(Cl)cc1)C(=O)O` (centres undefined), for which the cell number change is -98.3%. For the same compound, the AC50 under setting [1] is 29100 nM [falling, single point]. Also, the AC50 under setting [2] was 18400 nM [falling, partial curve].
In the case of `O=C(Nc1ccc2ccccc2c1)[C@@H]1C[C@H]1[C@@H](NP(=O)(c1ccccc1)c1ccccc1)c1ccccc1`, the cell number change is -0.764%. The half-maximal activity concentration (AC50) under setting [2] was 2310 nM [rising, partial curve].
Regarding `O=C(CSc1ncnc2[nH]ncc12)Nc1nc(-c2ccc(F)c(F)c2)cs1`, the cell number change is 36.9%. The AC50 under setting [1] was 11600 nM [rising, single point].
As for `CCc1c(C(=O)NC2CCCc3ccccc32)[nH]c(C)c1C(C)=O` (centres undefined), the cell number change is -10.7%.
For the compound `Cc1ccc(-c2nc3cnccn3c2Nc2ccc3c(c2)OCO3)o1`, the AC50 was 1640 nM [rising, partial curve] under setting [1] and 1640 nM [rising, partial curve] under setting [2].
With `Cc1ccccc1S(=O)(=O)c1c(C)cc(C)n(C(C)C)c1=O`, the cell number change was -11.4%. In addition, under setting [2], the concentration at half-maximal activity (AC50) was 29100 nM [falling, single point].
For `Cc1cc(C(C)(C)C)cc(C)c1COC(=O)C1CCC(=O)N1` (centres undefined), the cell number change is -13.2%.
As for `Cc1cccc(/C=N/NC(=O)NC23CC4CC(CC(C4)C2)C3)n1`, the cell number change is -10.4%. Under setting [2], the AC50 is 820 nM [rising, partial curve].
Turning to `Cc1cc(C(=O)COC(=O)Cn2cnc3c2c(=O)n(C)c(=O)n3C)c(C)n1C`, the cell number change was found to be 6.43%. Besides, the AC50 under setting [1] is 130 nM [falling, full curve, poor fit]. Also, the concentration at half-maximal activity (AC50) under setting [2] is 651 nM [falling, full curve, poor fit].
Take `Cc1ccc(C(=O)N2CCN(S(=O)(=O)c3ccccc3)CC2)cc1`: the concentration at half-maximal activity (AC50) by setting is: under setting [1], 4110 nM [rising, single point]; under setting [2], 920 nM [rising, full curve, poor fit].
As to `CCOc1ncccc1C(=O)OCC(=O)NCCc1ccc(S(N)(=O)=O)cc1`, the cell number change is -13.6%. The AC50 under setting [2] was 29100 nM [rising, single point].
Consider `COCCn1c(N2CCCC2)nc2c1c(=O)[nH]c(=O)n2C`, for which the cell number change amounted to 32.8%.
On to `Cc1ccc(OCC(=O)N(Cc2ccccc2)C(C)C)c([N+](=O)[O-])n1`, for which the cell number change is 89.9%. In addition, the concentration at half-maximal activity (AC50) under setting [1] is 920 nM [rising, full curve].
For `Cc1cc(C(=O)Nc2ccncc2)c2ccccc2n1`, the cell number change came to 4.86%. In addition, the AC50 under setting [2] was 29100 nM [falling, single point].
Take `Cc1ccc(C(=O)Nc2cc(S(=O)(=O)N3CCOCC3)ccc2N2CCCC2)cc1`: the cell number change was -8.3%. In addition, the concentration at half-maximal activity (AC50) under setting [2] is 6510 nM [falling, single point].
`Cc1nc2cc(NC(=O)c3ccc(N4C(=O)CCC4=O)cc3)ccc2s1`: the cell number change was -10.7%. For the same compound, the AC50 under setting [1] is 4.61 nM [falling, full curve, poor fit]. Further, the half-maximal activity concentration (AC50) under setting [2] was 820 nM [falling, single point].
`Cc1nc2cc(C(F)(F)F)ccc2n1CCNc1nc(-c2ccc([N+](=O)[O-])c(Cl)c2)cs1`: the cell number change is -10.2%. Moreover, the concentration at half-maximal activity (AC50) under setting [2] was 29100 nM [falling, single point].
In the case of `COc1ccc(-c2nc(-c3ccc(O)cc3O)cs2)cc1OC`, the cell number change is -31.4%. For the same compound, the AC50 under setting [1] was 29100 nM [falling, single point]. Moreover, the half-maximal activity concentration (AC50) under setting [2] is 18400 nM [falling, single point].
Consider `CN(C)c1cccc(C(=O)NNC(=O)CSc2ccccc2)c1`, for which the cell number change came to 13%. Moreover, under setting [2], the concentration at half-maximal activity (AC50) was 3260 nM [rising, full curve, poor fit].
`Cc1c(Cl)cnc(NC(=O)COC(=O)CCS(=O)(=O)c2ccccc2)c1Cl`: the cell number change is -23%. Under setting [1], the half-maximal activity concentration (AC50) is 2910 nM [rising, single point].
As to `Nc1ccc(NC(=O)c2ccccc2)c2c1C(=O)c1ccccc1C2=O`, the cell number change was -15.9%.
`O=C(Cn1c(=O)oc2cc(S(=O)(=O)N3CCCCC3)ccc21)N1CCc2ccccc21`: the cell number change is -86.9%. Further, the AC50 under setting [1] is 23100 nM [falling, partial curve]. Also, the AC50 under setting [2] is 1460 nM [falling, full curve].
For `CCc1ccc(CC)c(S(=O)(=O)Nc2ccc(O)c(C(=O)O)c2)c1`, the cell number change is -52.2%. Moreover, the concentration at half-maximal activity (AC50) under setting [1] was 18400 nM [falling, partial curve, poor fit]. In addition, under setting [2], the concentration at half-maximal activity (AC50) is 5170 nM [falling, partial curve].
Consider `O=C(C(Cl)c1ccccc1)N1CCOCC1` (centres undefined), for which the cell number change is 26.1%. Under setting [2], the AC50 is 580 nM [rising, single point].
With `CCOC1=NN(c2ncc(C(F)(F)F)cc2Cl)C(=O)C1`, the cell number change was -42.1%. In addition, under setting [2], the AC50 was 25900 nM [falling, single point].
On to `CCOC(=O)c1c(C)[nH]c(C(=O)N2CCN(CC)CC2)c1C`, for which the cell number change was determined as 3.42%.
Regarding `O=C(OCCc1cc2ccccc2c(=O)o1)c1ccc(F)cc1`, the cell number change was -33.5%. Besides, under setting [1], the AC50 was 1840 nM [falling, partial curve, poor fit]. In addition, the concentration at half-maximal activity (AC50) under setting [2] was 4110 nM [falling, partial curve, poor fit].
Regarding `COCc1cc(C)nc(N2CCN(c3ccccc3)CC2)c1C#N`, the cell number change turned out to be 36.1%. Further, under setting [1], the AC50 was 517 nM [rising, full curve, poor fit].
On to `COc1cc(OC)c2c(C)c(Cl)c(=O)oc2c1`, for which the cell number change is 4.35%.
For `Cc1nc(SCC(=O)N2CCN(C(=O)c3ccco3)CC2)c2c(C)c(C)sc2n1`, the cell number change was -18.5%. The half-maximal activity concentration (AC50) under setting [2] was 1840 nM [rising, single point].
`Nc1c(C(=O)Nc2nc3ccccc3s2)sc2nc(-c3cccs3)ccc12`: the cell number change was -49.3%. Besides, the AC50 under setting [1] is 2060 nM [falling, full curve, poor fit]. Further, the AC50 under setting [2] was 1640 nM [falling, full curve].
Consider `CCCCCn1c(N)c(-c2nc3ccccc3s2)c2c([N+](=O)[O-])nn(CC)c(=O)c21`, for which the AC50 under setting [1] is 4.61 nM [rising, full curve, poor fit].
Turning to `CCCc1nc(SCC(=O)N2CCCC2)c2c(=O)n(C)c(=O)n(C)c2n1`, the cell number change was -39.3%. In addition, the AC50 under setting [1] is 8200 nM [falling, partial curve, poor fit]. Besides, the AC50 under setting [2] is 5170 nM [falling, full curve].
`Cc1c(NC(=S)NC(=O)c2sc3ccccc3c2Cl)cccc1C(=O)O`: the cell number change was 8.98%.
Regarding `COc1ccc(/C=C/C(=O)Oc2ccc(C)cc2)cc1`, the cell number change was 10.5%. For the same compound, the AC50 under setting [2] is 2910 nM [falling, single point].
As to `CN(C)CCN(C(=O)CCS(=O)(=O)c1ccccc1)c1nc2cc3c(cc2s1)OCO3`, the cell number change is -6.74%. Moreover, the concentration at half-maximal activity (AC50) under setting [2] is 1840 nM [falling, full curve].
On to `CCOC(=O)/C=C1\SCC(=O)N1CC(=O)Nc1ccc(OC)c(OC)c1`, for which the cell number change is 57.2%. Moreover, the half-maximal activity concentration (AC50) under setting [1] was 16400 nM [rising, single point].
Regarding `Cc1cc(NCC(C)C)n2ncnc2n1`, the cell number change is -66.9%. Also, under setting [1], the half-maximal activity concentration (AC50) is 29100 nM [falling, single point]. For the same compound, the concentration at half-maximal activity (AC50) under setting [2] was 18400 nM [falling, partial curve].
As to `COc1ccc(-c2nnn(CC(=O)N(C3CCCCC3)C(C)C(=O)NC3CCCC3)n2)cc1OC` (centres undefined), the cell number change turned out to be 11.2%. Besides, the AC50 under setting [2] was 2310 nM [rising, full curve].
Consider `Cc1cc(C(=O)CSc2nc(N)cc(=O)[nH]2)c(C)n1-c1ccc(OC(F)F)cc1`, for which the cell number change was -99.5%. In addition, the AC50 under setting [1] is 29100 nM [falling, single point].
In the case of `O=C(NCc1ccccn1)c1cc2c(ccc3ccccc32)oc1=O`, the cell number change amounted to 34.8%. Further, under setting [1], the AC50 is 31600 nM [rising, single point]. The concentration at half-maximal activity (AC50) under setting [2] is 35500 nM [rising, single point].
For `COCCn1c(SCc2nc3sc(C(=O)OC)c(C)c3c(=O)[nH]2)nc2ccccc21`, the cell number change turned out to be 6.14%. Besides, the AC50 under setting [2] was 4110 nM [falling, partial curve].
Consider `O=C(Nc1ccccc1OC(F)F)C1CCCN1C(=O)c1cccs1` (centres undefined), for which the cell number change was 0.627%.
Consider `COC(=O)C(NNc1ccccc1)(NC(=O)c1ccccc1F)C(F)(F)F` (centres undefined), for which the cell number change amounted to 6.84%. Besides, the AC50 under setting [2] was 4.61 nM [rising, full curve, poor fit].
Turning to `CCOCCc1nnc(NC(=O)Cc2ccccc2)s1`, the AC50 under setting [2] was 6510 nM [falling, single point].
Regarding `CSc1nc(-c2ccccc2)nn1S(=O)(=O)c1ccc(Cl)cc1`, the cell number change is -0.45%. Under setting [2], the AC50 is 130 nM [falling, full curve, poor fit].
For the compound `Cc1nn(Cc2c(F)c(F)c(F)c(F)c2F)c(C)c1NC(=O)c1c([N+](=O)[O-])cnn1C`, the cell number change is 19.4%. In addition, the half-maximal activity concentration (AC50) under setting [2] is 2910 nM [rising, partial curve].
Consider `CCCCCC(=O)Nc1ccc2oc(-c3ccncc3)nc2c1`, for which the cell number change is 1.54%.

As usually defined, the AC50 is the concentration giving half of the maximal activity seen. A high value points to activity only at high concentration.
